Results published in US20200131584A1.
Results are given in words; binding and its absence hold for the method and conditions named. For some of these results: In cells and extracts the contact can be indirect. Some entries that bind do so weakly or less than the wild type.

Chains of the proteins cited; added tags and fusions are not shown. Lines headed by an entry give the natural chain unless they say otherwise; changes in a name come on top. Residues count along the entry.
UniProt P40763, residues 2-770: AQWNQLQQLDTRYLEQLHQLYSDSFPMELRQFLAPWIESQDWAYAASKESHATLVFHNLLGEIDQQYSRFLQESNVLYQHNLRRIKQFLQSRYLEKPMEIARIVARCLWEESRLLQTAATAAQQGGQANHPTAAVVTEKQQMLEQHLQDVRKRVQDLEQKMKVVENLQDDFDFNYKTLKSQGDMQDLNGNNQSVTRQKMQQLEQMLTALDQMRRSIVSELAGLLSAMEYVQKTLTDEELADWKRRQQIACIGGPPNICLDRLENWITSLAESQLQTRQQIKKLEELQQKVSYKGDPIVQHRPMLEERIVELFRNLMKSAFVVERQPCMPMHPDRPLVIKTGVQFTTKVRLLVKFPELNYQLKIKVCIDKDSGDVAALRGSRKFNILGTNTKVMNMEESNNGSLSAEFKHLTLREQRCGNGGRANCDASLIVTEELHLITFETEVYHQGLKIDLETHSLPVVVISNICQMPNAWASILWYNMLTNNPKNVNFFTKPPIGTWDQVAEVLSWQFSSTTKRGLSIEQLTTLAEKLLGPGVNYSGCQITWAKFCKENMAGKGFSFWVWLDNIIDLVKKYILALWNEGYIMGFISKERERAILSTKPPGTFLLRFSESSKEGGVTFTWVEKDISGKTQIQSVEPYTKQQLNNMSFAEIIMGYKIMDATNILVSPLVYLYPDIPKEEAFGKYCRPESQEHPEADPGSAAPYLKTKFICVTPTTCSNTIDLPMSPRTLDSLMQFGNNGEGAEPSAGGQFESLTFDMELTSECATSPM
UniProt Q9Y238: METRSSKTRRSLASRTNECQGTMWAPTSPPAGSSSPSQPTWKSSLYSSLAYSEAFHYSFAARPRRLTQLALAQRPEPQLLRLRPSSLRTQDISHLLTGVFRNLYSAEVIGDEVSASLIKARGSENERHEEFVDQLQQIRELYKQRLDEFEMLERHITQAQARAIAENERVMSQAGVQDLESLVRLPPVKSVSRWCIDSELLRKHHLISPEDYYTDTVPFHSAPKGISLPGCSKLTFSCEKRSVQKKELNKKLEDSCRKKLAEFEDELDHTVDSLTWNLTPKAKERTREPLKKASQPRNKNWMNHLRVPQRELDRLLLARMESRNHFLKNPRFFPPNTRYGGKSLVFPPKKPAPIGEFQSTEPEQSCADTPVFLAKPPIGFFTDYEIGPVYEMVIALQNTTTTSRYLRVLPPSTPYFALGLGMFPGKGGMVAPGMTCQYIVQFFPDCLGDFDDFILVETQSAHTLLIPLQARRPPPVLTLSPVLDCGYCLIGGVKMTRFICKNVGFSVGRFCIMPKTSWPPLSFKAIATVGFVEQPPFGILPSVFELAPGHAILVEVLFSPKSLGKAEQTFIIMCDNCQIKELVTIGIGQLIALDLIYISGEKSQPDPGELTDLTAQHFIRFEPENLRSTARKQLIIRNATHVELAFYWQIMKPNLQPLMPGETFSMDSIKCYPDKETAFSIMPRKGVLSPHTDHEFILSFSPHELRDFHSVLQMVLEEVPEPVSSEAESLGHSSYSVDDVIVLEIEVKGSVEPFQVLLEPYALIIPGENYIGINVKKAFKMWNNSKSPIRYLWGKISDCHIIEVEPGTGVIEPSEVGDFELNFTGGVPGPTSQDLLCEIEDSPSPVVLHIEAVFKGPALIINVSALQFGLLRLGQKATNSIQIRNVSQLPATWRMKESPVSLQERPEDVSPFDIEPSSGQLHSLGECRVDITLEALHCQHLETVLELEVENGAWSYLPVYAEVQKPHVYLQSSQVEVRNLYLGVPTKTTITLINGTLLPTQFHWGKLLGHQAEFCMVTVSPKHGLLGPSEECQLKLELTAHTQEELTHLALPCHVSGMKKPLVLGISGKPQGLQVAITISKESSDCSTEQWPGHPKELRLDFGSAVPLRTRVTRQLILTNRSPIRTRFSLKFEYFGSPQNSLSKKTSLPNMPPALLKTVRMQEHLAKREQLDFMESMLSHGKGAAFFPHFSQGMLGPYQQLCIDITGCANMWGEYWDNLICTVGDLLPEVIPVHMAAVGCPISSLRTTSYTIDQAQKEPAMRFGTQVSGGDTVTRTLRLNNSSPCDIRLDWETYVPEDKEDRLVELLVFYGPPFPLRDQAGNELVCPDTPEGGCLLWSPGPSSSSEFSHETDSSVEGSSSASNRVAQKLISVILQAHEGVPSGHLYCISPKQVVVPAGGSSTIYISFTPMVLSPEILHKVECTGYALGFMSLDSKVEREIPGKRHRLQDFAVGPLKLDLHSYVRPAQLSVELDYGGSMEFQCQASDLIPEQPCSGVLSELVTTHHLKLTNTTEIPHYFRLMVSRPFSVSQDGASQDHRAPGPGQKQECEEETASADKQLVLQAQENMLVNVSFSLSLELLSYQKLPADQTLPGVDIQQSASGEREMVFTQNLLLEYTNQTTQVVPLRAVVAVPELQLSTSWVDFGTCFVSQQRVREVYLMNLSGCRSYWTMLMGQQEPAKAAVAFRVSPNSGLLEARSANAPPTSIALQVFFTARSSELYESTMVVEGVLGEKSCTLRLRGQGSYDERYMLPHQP

How the values were obtained:
p-STAT3 (Tyr705) [1] = target: p-STAT3 (Tyr705) (UniProt P40763); assay: reciprocal co-immunoprecipitation, HEK293T lysates
STAT3 [2] = target: STAT3 (UniProt P40763); assay: reciprocal co-immunoprecipitation, HEK293T lysates
STAT3 [3] = target: STAT3 (UniProt P40763); assay: IP of HEK293T lysates with DLEC1, STAT3 or JAK2 antibodies (FIG. 7D)
STAT3 [4] = target: STAT3 (UniProt P40763); assay: IP with anti-STAT3, anti-Flag or anti-JAK2 antibody, Flag-DLEC1-transfected cells (FIG. 7E-H)
STAT3 [5] = target: STAT3 (UniProt P40763); assay: summary of the co-IP results (abstract of the examples)
p-STAT3 (Tyr705) [6] = target: p-STAT3 (Tyr705) (UniProt P40763); assay: co-IP, Flag-DLEC1-transfected carcinoma and HEK293T cells; IL-6 stimulation decreased this interaction
STAT3 [7] = target: STAT3 (UniProt P40763); assay: co-IP, Flag-DLEC1-transfected carcinoma and HEK293T cells; IL-6 stimulation increased this interaction

Measured: binding

endogenous DLEC1 protein (deleted in lung and esophageal cancer 1) (from UniProt Q9Y238 1-1755)
binds: p-STAT3 (Tyr705) [1] | STAT3 [2] | STAT3 [3]

Flag-DLEC1 (exogenous, ectopically expressed DLEC1) (from UniProt Q9Y238 1-1755)
binds: STAT3 [4] | STAT3 [5] | p-STAT3 (Tyr705) [6] | STAT3 [7]
